Data from publication PMC6882859, “Core architecture of a bacterial type II secretion system” (Nature Communications, 2019).

Molecular target: PulN with C-terminal Flag tag (Klebsiella pneumoniae HS11286)
Experiment: pull-down; two-step affinity chromatography from DDM-solubilised membranes of E. coli co-expressing PulE-StrepII with PulL, PulM and PulN-Flag: StrepTrap, then Flag resin; no glutaraldehyde

## PulL (from UniProt A0A0H3GNF4)
  binding: binds weakly

## PulM (from UniProt A0A0H3GMR9)
  binding: binds weakly

Results are given in words; binding and its absence hold for the method and conditions named. Binding seen in cells or lysates may run through a third protein. Binding calls can cover weak binding; strength is not graded here.
